Assay: Delay of setting in gypsum
Conditions: 45 mg substance, 20.0 gm gypsum, 9 ml H2O

Row | SMILES | Setting Time [min]
1 | NC1(P(=O)(O)O)CC(=O)NP1(=O)O (stereo not shown) [n=1, R=H, 2-Hydroxy-2-oxo-3-amino-3-phosphonyl-5-oxo-1-aza-2-phospha-cyclopentane] | 50
2 | CCNC1(P(=O)(O)O)CCC(=O)N(CC)P1(=O)O (stereo not shown) [n=2, R=C2 H5, 1-Ethyl-2-hydroxy-2-oxo-3-ethylamino-3-phosphonyl-6-oxo-1-aza-2-phospha-cyclohexane] | 120
3 | CCCCNC1(P(=O)(O)O)CCC(=O)N(CCCC)P1(=O)O (stereo not shown) [n=2, R=C4 H9, 1-Butyl-2-hydroxy-2-oxo-3-butylamino-3-phosphonyl-6-oxo-1-aza-2-phospha-cyclohexane] | 120
4 | CNC1(P(=O)(O)O)CCC(=O)N(C)P1(=O)O (stereo not shown) [n=2, R=CH3, 1-Methyl-2-hydroxy-2-oxo-3-methylamino-3-phosphonyl-6-oxo-1-aza-2-phospha-cyclohexane] | 100
5 | NC1(P(=O)(O)O)CCC(=O)NP1(=O)O (stereo not shown) [n=2, R=H, 2-Hydroxy-2-oxo-3-amino-3-phosphonyl-6-oxo-1-aza-2-phospha-cyclohexane] | 210
6 | CNC1(P(=O)(O)O)CCCC(=O)N(C)P1(=O)O (stereo not shown) [n=3, R=CH3, 1-Methyl-2-hydroxy-2-oxo-3-methylamino-3-phosphonyl-7-oxo-1-aza-2-phospha-cycloheptane] | 100
7 | NC1(P(=O)(O)O)CCCC(=O)NP1(=O)O (stereo not shown) [n=3, R=H, 2-Hydroxy-2-oxo-3-amino-3-phosphonyl-7-oxo-1-aza-2-phospha-cycloheptane] | 120

Source: patent US3984543A, “Therapeutic methods employing cyclic aminophosphonic acids” (Henkel & Cie G.m.b.H., priority 1973, dated 1976)
